Data as given in US20210300992A1.
No constants are given. Whether binding was seen depends on the method and setting. Some binding calls cover weakened binding; strength is not graded here. For part of these data: Tags and fused reporters may be left off the sequences shown.

The chains behind the UniProt entries cited, without tags or fusion partners. Residues count along the entry.
UniProt P15018, residues 23-202: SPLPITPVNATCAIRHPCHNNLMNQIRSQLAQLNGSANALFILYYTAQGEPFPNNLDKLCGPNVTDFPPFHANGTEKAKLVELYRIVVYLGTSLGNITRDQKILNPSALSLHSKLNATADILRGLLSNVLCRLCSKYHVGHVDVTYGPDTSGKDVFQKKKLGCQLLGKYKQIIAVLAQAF

Assays:
[1] = target: LIF displayed on the surface of yeast (UniProt P15018); experiment: yeast-displayed LIF loaded with inhibitor, excess washed away, soluble LIF-His as competitor for 24 hours; anti-Fc fluorescence normalized to a control without wash and without soluble LIF
[2] = target: human leukemia inhibitory factor (LIF), soluble (human) (UniProt P15018); experiment: yeast surface display, flow cytometry; binding score to human LIF calculated as for FIG. 3 B (10 pM and 100 pM LIF), normalized to wild-type
[3] = target: human leukemia inhibitory factor (LIF), soluble (human) (UniProt P15018); experiment: KinExA with soluble human LIF; inhibitor titrated
human LIF-His (human) [4] = target: human LIF-His (human) (UniProt P15018); experiment: competitive binding assay: excess inhibitor against LIF-His on yeast-displayed wild-type LIFR or gp130
human LIF-His (human) [5] = target: human LIF-His (human) (UniProt P15018); experiment: multiple LIF binding assay: inhibitor bound to yeast-displayed LIF bridges soluble LIF-His (10 nM, 100 nM), anti-His detection
[6] = target: LIF displayed on the surface of yeast (UniProt P15018); experiment: yeast-displayed LIF, anti-Fc detection by flow cytometry
[7] = target: human leukemia inhibitory factor (LIF), soluble (human) (UniProt P15018); experiment: yeast surface display, flow cytometry; binding score from fluorescence at 100 pM and 1 nM human LIF, normalized to wild-type
human LIF-His (human) [8] = target: human LIF-His (human) (UniProt P15018); experiment: bridging assay on yeast: inhibitor bound at saturation to yeast-displayed LIF, excess washed away, LIF-His added at 10 or 100 nM; anti-His fluorescence normalized to no LIF-His
human LIF-His (human) [9] = target: human LIF-His (human) (UniProt P15018); experiment: competition on yeast: displayed wild-type LIFR or gp130 saturated with LIF-His, inhibitor added in excess; anti-His signal normalized to LIF alone
human LIF-His (human) [10] = target: human LIF-His (human) (UniProt P15018); experiment: simultaneous binding assay: LIF held by yeast-displayed gp130 or LIFR, anti-Fc detection

- binding [1]: binds
- binding ([1]; record 2): binds
- binding [2]: binds
- binding ([2]; record 2): binds
- binding ([2]; record 3): binds
- binding ([2]; record 4): binds
- binding ([2]; record 5): binds
- binding ([2]; record 6): binds
- binding [3]: binds
- binding (human LIF-His (human) [4]): binds
- binding (human LIF-His (human) [4]; record 2): binds
- binding (human LIF-His (human) [5]): binds
- binding [6]: binds
- binding ([6]; record 2): binds
- binding [7]: binds
- binding ([7]; record 2): binds
- binding (human LIF-His (human) [8]): binds
- binding (human LIF-His (human) [9]): binds
- binding (human LIF-His (human) [9]; record 2): binds
- binding (human LIF-His (human) [10]): binds
- binding (human LIF-His (human) [10]; record 2): binds
B1: … (receptor)
yeast-displayed receptor fragment: QKKGAPHDLKCVTNNLQVWNCSWKAPSGTGRGTDYEVCIENRSRSCYQLEKTSIKIPALSHGDYEITINSLHDFGSSTSKFTLNEQNVSLIPDTPEILNLSADFSTSTLYLKWNDRGSVFPHRSNVIWEIKVLRKESMELVKLVTHNTTLNGKDTLHHWSWASDMPLECAIHFVEIRCYIDNLHFSGLEEWSDWSPVKNISWIPDSQTKVFPQDKVVPVGSDITFCCVSQEKVLSALIGRTDCPLIHLDGENVAIKVRNVSASASSGTNVVFITEDDIFGTVIFAGYPPDTPQQLNCETHDLKEIICSWNPGRVTALVGPRATSYTLVESFSGKYVRLKRAEAPTNESYQLLFQMLPNQEIYNFTLNAHNPLGRSQSTILVNITEKVYPHTPTSFKVKDINSTAVKLSWHLPGNFAKINFLCEIEIKKSNSVQEQRNVTIKGVENSSYLVALDKLNPYTLYTFRIRCSTETFWKWSKWSNKKQHLTTEAS
